The source of these data is the supplement of paper PMC12009310.

Where a name gives a salt, the structure may show the parent alone. ± gives the standard deviation of the averaged measurements. The list shows a part of the results. Part of the spread comes from offsets between plates or batches.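 The cells are a mouse kidney inner medullary collecting duct line, silenced either for the ciliary gene Rpgrip1l or with a non-targeting control siRNA.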

In this experiment the test system is mIMCD3. Put plainly: robust z score of cilia incidence (% cells with single cilium) vs plate controls; higher = more ciliated cells (rescue of cilia loss). The conditions noted are these: 10 µM; 48 h; siRNA: siRpgrip1l.
With `Oc1ccc2c3c1O[C@H]1c4oc5ccccc5c4C[C@@]4(O)[C@@H](C2)N(CC2CC2)CC[C@]314` [Naltriben mesylate], the “robust z score of cilia incidence” value is -10.8 ± 7.6.

On to `Oc1ccc2c3c1O[C@H]1c4[nH]c5ccccc5c4C[C@@]4(O)[C@@H](C2)N(CC2CC2)CC[C@]314` [Naltrindole hydrochloride], for which the “robust z score of cilia incidence” value was -5.39 ± 1.

As for `c1ccc(C2CC2)c(OCC2=NCCN2)c1` [Cirazoline hydrochloride], the “robust z score of cilia incidence” value was -7.15 ± 2.2.

For the molecule `Cc1cc(SCc2sc(-c3ccc(C(F)(F)F)c(F)c3)nc2C)ccc1OCC(=O)O`, the “robust z score of cilia incidence” value is -40.5 ± 26.

For the molecule `O=C1Nc2ccccc2C2(CCN(CCc3ccc(C(F)(F)F)cc3)CC2)O1`, the “robust z score of cilia incidence” value was -55.1 ± 14.

With `C[C@H](N)Cc1cnc[nH]1` [(S)-(+)-a-Methylhistamine dihydrobromide], the “robust z score of cilia incidence” value was -12.5 ± 6.2.

For `CC(=O)NCCc1c[nH]c2ccccc12` [N-Acetyltryptamine], the “robust z score of cilia incidence” value was -7.25 ± 6.3.

Regarding `CC(C)(C)NCC(O)COc1cccc2[nH]c(C#N)cc12` (configuration not stated) [Cyanopindolol hemifumarate], the “robust z score of cilia incidence” value was -11.2 ± 5.

With `CC(C)n1cnc2c(C(=O)N[C@H]3CN4CCC3CC4)cc(Cl)cc21`, the “robust z score of cilia incidence” value was -25.4 ± 5.1.

Regarding `C[C@@]12N[C@@H](Cc3ccccc31)c1ccccc12` [(-)-MK 801 maleate], the “robust z score of cilia incidence” value was -8.89 ± 3.2.

`CN1Cc2ccccc2[C@@H]2c3cccc4[nH]cc(c34)C[C@H]21`: the “robust z score of cilia incidence” value was -15.4 ± 4.7.

Consider `Oc1ccc2c3c1O[C@H]1c4[nH]c5c(c4C[C@@]4(O)[C@@H](C2)N(CC2CC2)CC[C@]314)C[C@@]1(O)[C@H]2Cc3ccc(O)c4c3[C@@]1(CCN2CC1CC1)[C@H]5O4` [nor-Binaltorphimine dihydrochloride], for which the “robust z score of cilia incidence” value was -4.87 ± 5.3.

`CC[C@@]1(O)C(=O)OCc2c1cc1n(c2=O)Cc2cc3ccccc3nc2-1` [Camptothecin]: the “robust z score of cilia incidence” value is -29.3 ± 0.61.

Turning to `CN1c2ccccc2C(NCCCCCCC(=O)O)c2ccc(Cl)cc2S1(=O)=O` (configuration not stated) [Tianeptine], the “robust z score of cilia incidence” value is -28.2 ± 22.

For the molecule `N=C(N)NN` [Aminoguanidine hydrochloride], the “robust z score of cilia incidence” value is -5.35 ± 1.2.

Take `Nc1ccncc1` [4-Aminopyridine]: the “robust z score of cilia incidence” value was -10.7 ± 8.5.

For `CC(C(=O)OC1CC2CCC(C1)N2C)c1ccc(Br)cc1` (configuration not stated) [PG-9 maleate], the “robust z score of cilia incidence” value was -38.6 ± 0.59.

As for `COc1ccc2[nH]cc(C3=CCNCC3)c2c1`, the “robust z score of cilia incidence” value was -9.59 ± 2.4.

As to `O=C1NCN(c2ccccc2)C12CCN(CC1COc3ccccc3O1)CC2` (configuration not stated) [Spiroxatrine], the “robust z score of cilia incidence” value is -11.7 ± 0.65.

For the molecule `CN(C(=O)Cc1ccc(Cl)c(Cl)c1)[C@H](CN1CCCC1)c1ccccc1` [ICI-199,441 hydrochloride], the “robust z score of cilia incidence” value was -31.3 ± 2.5.

For the molecule `O=c1[nH]oc2c1CCNC2` [THIP hydrochloride], the “robust z score of cilia incidence” value is -5.93 ± 0.96.

Regarding `CN(C)c1ccc(/C=C2\CCCN=C2c2cccnc2)cc1` [DMAB-anabaseine dihydrochloride], the “robust z score of cilia incidence” value is -19 ± 13.

`CC(=O)C1=C(O)[C@@H]2[C@H]3c4c[nH]c5cccc(c45)C[C@H]3C(C)(C)N2C1=O` [Cyclopiazonic Acid]: the “robust z score of cilia incidence” value was -19.9 ± 5.6.

Turning to `c1ccc2c(c1)[I+]c1ccccc1-2` [Diphenyleneiodonium chloride], the “robust z score of cilia incidence” value was -52.6 ± 8.4.

For the molecule `C=CCN1C[C@H](C)N([C@H](c2ccc(C(=O)N(CC)CC)cc2)c2cccc(OC)c2)C[C@H]1C`, the “robust z score of cilia incidence” value was -13.5 ± 4.2.

For the molecule `CS(=O)(=O)Nc1ccc(Cc2noc(-c3ccc4[nH]cc(CCN)c4c3)n2)cc1`, the “robust z score of cilia incidence” value is -5.64 ± 3.8.

As to `Cn1cc(C(=O)C(=O)N[C@H]2CN3CCC2CC3)c2ccccc21`, the “robust z score of cilia incidence” value is -23.8 ± 4.5.
